No constants are given. Whether binding was seen depends on the method and setting. In cells and extracts the contact can be indirect. These calls come from enrichment with a bait or labelling near it, and not all partners need be listed.
Key:
Assay in all cases: affinity purification with mass spectrometry; co-IP with limited cross-linking: trophozoites expressing C-terminally HA-tagged bait fixed in 2.25% formaldehyde, RIPA lysis and sonication, anti-HA agarose beads at 4°C, eluate on SDS-PAGE and LC-MS/MS; hits filtered against a control co-IP from non-transgenic WB cells; high, medium or relaxed stringency as told
[1] = target: HA-tagged Qb-SNARE 4 (MOMTiP-7, Gl50803_5785) (G. lamblia) (UniProt A8B2J8)
[2] = target: GlTom40-HA (C-terminally HA-tagged G. lamblia Tom40 homologue) (G. lamblia) (UniProt D3KGX1)
[3] = target: HA-tagged MOMTiP-4 (Gl50803_9296) (G. lamblia) (UniProt A8BBQ8)
[4] = target: HA-tagged MOMTiP-1 (Gl50803_29147) (G. lamblia) (UniProt A8B2G6)
[5] = target: GlIscS-HA (HA-tagged cysteine desulfurase) (G. lamblia) (UniProt A8B326)
[6] = target: HA-tagged MOMTiP-3 (Gl50803_14939) (G. lamblia) (UniProt A8B8F2)

Chains of the proteins cited; added tags and fusions are not shown. Lines headed by an entry give the natural chain unless they say otherwise; changes in a name come on top.
UniProt A8B2J8: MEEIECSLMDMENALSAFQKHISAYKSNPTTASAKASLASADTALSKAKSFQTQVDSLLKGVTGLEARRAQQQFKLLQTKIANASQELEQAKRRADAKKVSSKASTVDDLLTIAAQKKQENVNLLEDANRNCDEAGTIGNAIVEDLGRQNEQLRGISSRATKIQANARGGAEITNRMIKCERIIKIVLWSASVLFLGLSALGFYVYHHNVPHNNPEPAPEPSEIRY
UniProt A8BBQ8: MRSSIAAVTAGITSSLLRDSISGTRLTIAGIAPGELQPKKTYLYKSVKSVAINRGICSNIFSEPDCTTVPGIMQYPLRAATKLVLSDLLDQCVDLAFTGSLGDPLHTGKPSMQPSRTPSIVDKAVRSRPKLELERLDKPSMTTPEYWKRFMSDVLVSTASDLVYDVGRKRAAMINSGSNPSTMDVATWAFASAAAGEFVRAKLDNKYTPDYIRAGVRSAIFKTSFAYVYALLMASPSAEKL
UniProt A8B2G6: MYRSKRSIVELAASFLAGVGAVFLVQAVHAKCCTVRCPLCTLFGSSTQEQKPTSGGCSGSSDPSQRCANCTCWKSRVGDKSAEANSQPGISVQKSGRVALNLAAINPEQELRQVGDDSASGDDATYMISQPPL
UniProt A8B8F2: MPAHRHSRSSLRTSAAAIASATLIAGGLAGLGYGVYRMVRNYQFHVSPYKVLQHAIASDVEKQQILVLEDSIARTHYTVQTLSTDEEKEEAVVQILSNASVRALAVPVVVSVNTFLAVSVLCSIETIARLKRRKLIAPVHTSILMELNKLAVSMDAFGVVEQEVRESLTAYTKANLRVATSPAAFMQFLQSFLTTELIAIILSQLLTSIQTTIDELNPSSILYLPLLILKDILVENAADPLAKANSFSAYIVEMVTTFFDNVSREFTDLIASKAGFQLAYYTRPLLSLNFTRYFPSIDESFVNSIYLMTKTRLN
UniProt A8BCH8: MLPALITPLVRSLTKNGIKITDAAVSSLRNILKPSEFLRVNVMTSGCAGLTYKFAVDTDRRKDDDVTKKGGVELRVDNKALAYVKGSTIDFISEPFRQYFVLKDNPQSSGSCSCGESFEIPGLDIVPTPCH
UniProt A8B6Z3: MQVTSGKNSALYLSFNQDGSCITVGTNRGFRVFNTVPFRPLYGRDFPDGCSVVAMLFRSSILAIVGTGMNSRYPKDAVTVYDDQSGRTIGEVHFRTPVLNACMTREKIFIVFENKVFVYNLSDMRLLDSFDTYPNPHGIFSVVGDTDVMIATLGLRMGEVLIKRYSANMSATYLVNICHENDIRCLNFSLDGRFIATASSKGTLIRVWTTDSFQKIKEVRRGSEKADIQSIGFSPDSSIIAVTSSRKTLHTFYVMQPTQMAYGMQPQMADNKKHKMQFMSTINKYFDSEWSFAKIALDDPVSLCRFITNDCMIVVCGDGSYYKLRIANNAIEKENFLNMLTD
UniProt A8BBT5: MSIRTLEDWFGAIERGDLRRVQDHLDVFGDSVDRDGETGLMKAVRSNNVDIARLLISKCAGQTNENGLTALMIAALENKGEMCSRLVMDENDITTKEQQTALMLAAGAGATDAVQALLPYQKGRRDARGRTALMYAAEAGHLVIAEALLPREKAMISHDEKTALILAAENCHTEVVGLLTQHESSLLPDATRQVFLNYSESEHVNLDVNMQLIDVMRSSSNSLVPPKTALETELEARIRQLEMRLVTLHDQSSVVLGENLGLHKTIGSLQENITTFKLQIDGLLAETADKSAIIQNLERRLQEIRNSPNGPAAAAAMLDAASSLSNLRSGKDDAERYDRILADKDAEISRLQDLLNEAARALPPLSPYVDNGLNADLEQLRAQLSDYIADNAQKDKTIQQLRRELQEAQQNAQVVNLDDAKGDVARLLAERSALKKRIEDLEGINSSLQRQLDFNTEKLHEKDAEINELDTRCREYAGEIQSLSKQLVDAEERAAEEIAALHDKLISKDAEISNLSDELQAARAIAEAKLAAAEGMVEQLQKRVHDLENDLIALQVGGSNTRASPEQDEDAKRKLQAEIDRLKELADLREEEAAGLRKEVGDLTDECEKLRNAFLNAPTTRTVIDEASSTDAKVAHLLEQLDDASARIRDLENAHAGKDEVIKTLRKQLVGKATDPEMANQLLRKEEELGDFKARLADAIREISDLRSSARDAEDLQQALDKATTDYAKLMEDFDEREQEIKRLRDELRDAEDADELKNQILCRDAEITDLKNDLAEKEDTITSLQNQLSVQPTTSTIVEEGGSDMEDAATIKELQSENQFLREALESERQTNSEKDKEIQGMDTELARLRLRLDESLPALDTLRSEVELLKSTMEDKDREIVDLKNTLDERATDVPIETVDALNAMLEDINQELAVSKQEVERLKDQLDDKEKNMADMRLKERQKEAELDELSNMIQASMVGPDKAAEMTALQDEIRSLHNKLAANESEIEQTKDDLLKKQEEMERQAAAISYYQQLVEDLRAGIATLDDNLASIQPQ
UniProt E2RTS2: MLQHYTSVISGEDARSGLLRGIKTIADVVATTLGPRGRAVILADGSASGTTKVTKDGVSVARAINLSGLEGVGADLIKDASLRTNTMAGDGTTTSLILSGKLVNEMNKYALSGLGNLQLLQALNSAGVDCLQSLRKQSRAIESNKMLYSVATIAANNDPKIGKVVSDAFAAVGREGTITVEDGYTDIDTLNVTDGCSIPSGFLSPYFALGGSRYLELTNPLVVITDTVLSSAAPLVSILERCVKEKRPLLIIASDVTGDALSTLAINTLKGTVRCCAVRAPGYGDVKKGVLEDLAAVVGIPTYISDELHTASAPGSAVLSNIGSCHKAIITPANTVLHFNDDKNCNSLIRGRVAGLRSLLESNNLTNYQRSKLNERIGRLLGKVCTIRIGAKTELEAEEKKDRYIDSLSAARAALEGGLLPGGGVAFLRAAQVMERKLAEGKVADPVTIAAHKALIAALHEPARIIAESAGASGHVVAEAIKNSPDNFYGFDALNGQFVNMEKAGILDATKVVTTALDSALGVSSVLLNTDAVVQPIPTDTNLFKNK
UniProt Q9BKB8: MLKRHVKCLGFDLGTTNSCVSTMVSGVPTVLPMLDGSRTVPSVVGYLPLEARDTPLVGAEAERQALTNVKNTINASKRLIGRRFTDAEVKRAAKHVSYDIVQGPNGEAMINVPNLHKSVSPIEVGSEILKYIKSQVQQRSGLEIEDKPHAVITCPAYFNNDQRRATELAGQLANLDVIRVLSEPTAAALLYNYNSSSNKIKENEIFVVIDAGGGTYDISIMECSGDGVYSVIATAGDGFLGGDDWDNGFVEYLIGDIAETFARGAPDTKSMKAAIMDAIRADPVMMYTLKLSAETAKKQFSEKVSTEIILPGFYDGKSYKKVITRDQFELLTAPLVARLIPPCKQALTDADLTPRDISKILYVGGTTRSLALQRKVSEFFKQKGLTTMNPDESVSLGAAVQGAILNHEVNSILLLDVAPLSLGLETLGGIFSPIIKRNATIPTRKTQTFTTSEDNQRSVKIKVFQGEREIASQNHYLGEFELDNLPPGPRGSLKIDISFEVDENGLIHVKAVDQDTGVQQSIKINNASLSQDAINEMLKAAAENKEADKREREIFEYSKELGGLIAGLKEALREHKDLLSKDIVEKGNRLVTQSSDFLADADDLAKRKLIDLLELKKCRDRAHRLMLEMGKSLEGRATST
UniProt A8BI30: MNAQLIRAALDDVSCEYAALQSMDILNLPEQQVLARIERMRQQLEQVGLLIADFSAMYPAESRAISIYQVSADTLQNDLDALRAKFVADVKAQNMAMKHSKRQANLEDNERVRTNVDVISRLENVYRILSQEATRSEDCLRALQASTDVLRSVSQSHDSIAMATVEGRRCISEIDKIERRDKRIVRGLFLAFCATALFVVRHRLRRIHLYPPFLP
UniProt A8B8T7: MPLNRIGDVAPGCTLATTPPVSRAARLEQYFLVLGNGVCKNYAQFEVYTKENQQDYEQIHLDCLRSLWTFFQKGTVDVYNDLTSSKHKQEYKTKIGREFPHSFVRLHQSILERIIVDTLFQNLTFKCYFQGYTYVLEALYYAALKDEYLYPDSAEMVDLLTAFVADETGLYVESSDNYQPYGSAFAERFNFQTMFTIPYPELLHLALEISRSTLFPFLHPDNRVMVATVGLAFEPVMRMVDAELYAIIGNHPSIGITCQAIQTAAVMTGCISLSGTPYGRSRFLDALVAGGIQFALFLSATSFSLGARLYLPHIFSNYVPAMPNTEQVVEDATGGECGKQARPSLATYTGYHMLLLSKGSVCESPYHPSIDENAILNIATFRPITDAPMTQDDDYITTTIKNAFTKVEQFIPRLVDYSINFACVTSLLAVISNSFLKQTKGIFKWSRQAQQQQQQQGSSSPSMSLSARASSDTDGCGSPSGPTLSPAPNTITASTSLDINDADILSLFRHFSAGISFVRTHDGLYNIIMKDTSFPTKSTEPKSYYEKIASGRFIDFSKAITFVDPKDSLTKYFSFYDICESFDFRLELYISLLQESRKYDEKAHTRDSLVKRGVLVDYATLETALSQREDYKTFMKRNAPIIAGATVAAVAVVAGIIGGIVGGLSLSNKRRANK
UniProt A8BZ59: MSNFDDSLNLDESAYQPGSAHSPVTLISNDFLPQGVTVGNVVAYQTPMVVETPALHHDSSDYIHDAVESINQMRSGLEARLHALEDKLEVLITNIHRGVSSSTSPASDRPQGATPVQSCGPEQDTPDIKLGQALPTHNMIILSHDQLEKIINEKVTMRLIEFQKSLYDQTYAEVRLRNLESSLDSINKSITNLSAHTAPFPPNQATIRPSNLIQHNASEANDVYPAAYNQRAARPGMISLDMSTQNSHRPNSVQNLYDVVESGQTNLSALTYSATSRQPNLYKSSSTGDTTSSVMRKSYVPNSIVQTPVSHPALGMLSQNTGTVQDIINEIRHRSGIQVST
UniProt A8B690: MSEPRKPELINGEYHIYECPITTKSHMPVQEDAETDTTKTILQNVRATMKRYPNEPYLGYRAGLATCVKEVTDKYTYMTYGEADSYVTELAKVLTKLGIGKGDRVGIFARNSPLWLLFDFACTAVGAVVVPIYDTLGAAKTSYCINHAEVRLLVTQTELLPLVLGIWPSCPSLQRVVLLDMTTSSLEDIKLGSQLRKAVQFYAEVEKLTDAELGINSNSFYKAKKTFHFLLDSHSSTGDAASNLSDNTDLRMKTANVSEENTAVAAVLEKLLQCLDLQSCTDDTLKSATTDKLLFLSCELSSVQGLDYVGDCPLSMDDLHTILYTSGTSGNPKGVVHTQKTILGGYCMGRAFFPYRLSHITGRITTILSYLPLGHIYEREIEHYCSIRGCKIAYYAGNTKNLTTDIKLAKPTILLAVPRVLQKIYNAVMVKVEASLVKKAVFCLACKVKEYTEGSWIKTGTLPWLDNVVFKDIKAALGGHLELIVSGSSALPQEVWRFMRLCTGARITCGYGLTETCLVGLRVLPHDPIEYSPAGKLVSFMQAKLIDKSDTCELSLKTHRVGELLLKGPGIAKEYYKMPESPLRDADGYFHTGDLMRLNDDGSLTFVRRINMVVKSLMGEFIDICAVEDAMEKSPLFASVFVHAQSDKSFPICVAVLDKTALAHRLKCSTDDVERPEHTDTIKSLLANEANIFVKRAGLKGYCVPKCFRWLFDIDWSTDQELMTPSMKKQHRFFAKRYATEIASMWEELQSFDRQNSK
UniProt A8B5M1: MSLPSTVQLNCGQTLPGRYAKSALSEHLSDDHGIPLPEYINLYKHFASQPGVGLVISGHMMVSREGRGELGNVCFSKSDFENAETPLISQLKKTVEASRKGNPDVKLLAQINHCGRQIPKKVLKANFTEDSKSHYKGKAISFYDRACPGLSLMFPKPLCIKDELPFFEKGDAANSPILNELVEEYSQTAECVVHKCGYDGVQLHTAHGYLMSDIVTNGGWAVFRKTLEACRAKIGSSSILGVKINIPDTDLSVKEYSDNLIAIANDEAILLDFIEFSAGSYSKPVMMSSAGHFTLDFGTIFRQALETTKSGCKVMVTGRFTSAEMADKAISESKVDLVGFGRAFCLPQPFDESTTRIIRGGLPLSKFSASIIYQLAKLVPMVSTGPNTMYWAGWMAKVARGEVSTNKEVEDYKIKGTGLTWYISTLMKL
UniProt A8BE60: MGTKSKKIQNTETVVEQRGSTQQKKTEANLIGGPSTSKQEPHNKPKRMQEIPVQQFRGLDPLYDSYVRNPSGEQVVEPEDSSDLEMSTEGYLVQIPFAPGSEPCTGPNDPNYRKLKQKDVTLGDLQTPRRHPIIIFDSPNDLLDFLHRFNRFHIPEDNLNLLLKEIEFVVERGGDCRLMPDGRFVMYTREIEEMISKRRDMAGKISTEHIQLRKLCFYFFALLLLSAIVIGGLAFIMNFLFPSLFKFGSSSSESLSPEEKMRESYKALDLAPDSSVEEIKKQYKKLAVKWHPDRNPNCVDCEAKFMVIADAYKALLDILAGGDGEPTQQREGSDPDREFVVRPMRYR
UniProt E2RU02: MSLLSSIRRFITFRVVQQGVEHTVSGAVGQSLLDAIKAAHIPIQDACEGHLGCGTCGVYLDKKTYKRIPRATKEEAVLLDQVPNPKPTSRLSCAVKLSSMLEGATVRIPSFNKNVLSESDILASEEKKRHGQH

Substance	binding [1]	binding [2]	binding [3]	binding [4]	binding [5]	binding [6]
Gl50803_17276 (from UniProt D3KGB2)				binds		
GlIscA (from UniProt A8BCH8)			binds			
GlTom40 (endogenous) (from UniProt D3KGX1)	binds		binds	binds	binds	binds
MOMTiP-2 (from UniProt A8BBD0)	binds	binds				binds
MOMTiP-3 (endogenous) (from UniProt A8B8F2)	binds	binds		binds		
MOMTiP-4 (endogenous) (from UniProt A8BBQ8)		binds				
MOMTiP-5 (from UniProt A8BFG3)	binds	binds				
MOMTiP-7 (Qb-SNARE 4) (endogenous) (from UniProt A8B2J8)		binds		binds		
MOMTiP-13 (from UniProt A8B6Z3)		binds				
axoneme-associated GASP-180 protein Gl50803_16745 (from UniProt A8BBT5)				binds		
chaperonin 60 (Cpn60; ORF Gl50803_103891) (from UniProt E2RTS2)		binds		binds	binds	
mitochondrial HSP70 (ORF Gl50803_14581) (from UniProt Q9BKB8)		binds	binds	binds	binds	

Further lines, results first:

binding [1]	binding [2]	binding [3]	binding [4]	binding [5]	binding [6]	Substance
binds	binds	binds	binds	binds	binds	G. lamblia dynamin related protein (GlDRP) (ORF Gl50803_14373) (from UniProt E2RU04)
	binds		binds	binds	binds	G. lamblia oxidoreductase 1 (ORF Gl50803_91252) (from UniProt A8B4Q8)
	binds		binds	binds		GlIscU (NifU-like protein; ORF Gl50803_15196) (from UniProt A0A644F9M5)
	binds					GlQb-SNARE 3 (putative Sec20, ORF Gl50803_5161) (from UniProt A8BI30)
binds	binds				binds	MOMTiP-1 (endogenous) (from UniProt A8B2G6)
	binds					MOMTiP-6 (from UniProt A8B8T7)
binds	binds					MOMTiP-8 (from UniProt A8BNI9)
binds	binds				binds	MOMTiP-9 (from UniProt A8BRP6)
	binds					MOMTiP-10 (from UniProt A8BZ59)
	binds					MOMTiP-11 (from UniProt A8B690)
	binds					MOMTiP-12 (from UniProt A8B5M1)
binds						Type III DnaJ protein Gl50803_9751 (from UniProt A8BE60)
			binds	binds		[2Fe-2S] ferredoxin (Gl50803_27266) (from UniProt E2RU02)
		binds	binds			cysteine desulfurase (IscS; Gl50803_14519) (endogenous) (from UniProt A8B326)

From paper PMC5142787
